Data: patent publication US9333222B2, “Histone deacetylase inhibitors as therapeutic agents for Niemann-Pick type C disease” (University of Notre Dame du Lac, priority 2009, dated 2016)

System: NPC1 human fibroblast GM03123 cells
Assay: Filipin microscopy assay of free cholesterol in lysosomal storage organelles (LSO ratio)
Assay type: cell-based
Conditions: 48 h, read-out: EC50 for correcting the NPC1 phenotype

O=C(CCCCCCC(=O)Nc1ccccc1)NO [SAHA, vorinostat]
EC50: ~1000 nM
